PMC8274477
These are yes or no findings as the source states them, for the method shown. Some entries that bind do so weakly or less than the wild type.

The chains behind the UniProt entries cited, without tags or fusion partners.
UniProt Q9Y2J4: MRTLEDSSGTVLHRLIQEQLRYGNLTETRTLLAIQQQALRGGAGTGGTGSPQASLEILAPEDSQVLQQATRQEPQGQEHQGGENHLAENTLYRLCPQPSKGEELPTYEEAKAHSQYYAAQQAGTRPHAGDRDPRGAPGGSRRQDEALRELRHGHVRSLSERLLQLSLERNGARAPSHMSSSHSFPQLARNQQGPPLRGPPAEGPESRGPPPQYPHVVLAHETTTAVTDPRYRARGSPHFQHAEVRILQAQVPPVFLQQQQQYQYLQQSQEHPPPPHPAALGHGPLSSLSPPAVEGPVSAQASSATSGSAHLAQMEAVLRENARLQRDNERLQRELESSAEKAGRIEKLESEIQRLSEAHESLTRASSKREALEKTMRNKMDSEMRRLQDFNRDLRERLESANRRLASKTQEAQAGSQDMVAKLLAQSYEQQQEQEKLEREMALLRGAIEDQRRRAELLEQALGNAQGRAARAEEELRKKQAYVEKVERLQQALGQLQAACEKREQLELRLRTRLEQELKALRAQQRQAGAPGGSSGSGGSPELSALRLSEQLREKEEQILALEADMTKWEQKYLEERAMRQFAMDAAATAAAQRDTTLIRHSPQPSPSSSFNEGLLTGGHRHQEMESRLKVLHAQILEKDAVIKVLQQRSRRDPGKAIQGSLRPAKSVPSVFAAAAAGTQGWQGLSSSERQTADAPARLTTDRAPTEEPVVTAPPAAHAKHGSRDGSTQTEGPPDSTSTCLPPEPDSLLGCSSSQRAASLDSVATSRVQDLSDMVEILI
UniProt Q13310: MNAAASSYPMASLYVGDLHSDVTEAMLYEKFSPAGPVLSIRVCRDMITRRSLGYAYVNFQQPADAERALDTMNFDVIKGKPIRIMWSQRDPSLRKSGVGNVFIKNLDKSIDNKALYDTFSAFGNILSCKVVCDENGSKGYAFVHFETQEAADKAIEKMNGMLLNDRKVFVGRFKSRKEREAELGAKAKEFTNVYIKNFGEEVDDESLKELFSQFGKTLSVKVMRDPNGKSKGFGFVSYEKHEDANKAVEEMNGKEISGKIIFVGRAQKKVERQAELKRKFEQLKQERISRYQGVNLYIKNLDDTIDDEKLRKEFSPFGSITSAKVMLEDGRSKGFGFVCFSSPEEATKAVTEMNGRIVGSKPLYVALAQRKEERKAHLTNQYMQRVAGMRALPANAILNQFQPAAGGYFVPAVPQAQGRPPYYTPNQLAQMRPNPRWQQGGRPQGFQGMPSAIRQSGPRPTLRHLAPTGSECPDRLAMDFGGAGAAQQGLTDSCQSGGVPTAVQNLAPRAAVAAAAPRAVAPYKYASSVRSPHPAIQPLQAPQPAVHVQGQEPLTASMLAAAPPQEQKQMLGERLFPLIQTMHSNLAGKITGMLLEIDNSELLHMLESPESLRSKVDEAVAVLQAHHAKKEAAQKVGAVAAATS
UniProt P20339: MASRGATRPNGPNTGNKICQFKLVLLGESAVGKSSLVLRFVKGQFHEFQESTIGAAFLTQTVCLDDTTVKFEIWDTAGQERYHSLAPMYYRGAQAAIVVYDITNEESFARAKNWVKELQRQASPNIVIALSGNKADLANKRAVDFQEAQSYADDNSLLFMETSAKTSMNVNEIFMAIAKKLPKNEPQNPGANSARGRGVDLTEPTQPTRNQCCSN

Tests used:
Assay in all cases: peptide or protein array; HuProt human proteome microarray; 5 ug/5 ml biotin-labelled LUBAC or OTULIN in solution, 1 h at room temperature; Cy5-streptavidin, scanned at 635 nm; BSA as negative control; hits: Z-score >= 3 and I_(Mean_Ratio) >= 1.4; both purified
AMOTL2 (human) = AMOTL2 (human) (UniProt Q9Y2J4)
DARS2 (human) = biological target: T1, DARS2 (human) (UniProt Q6PI48)
T1 sequence: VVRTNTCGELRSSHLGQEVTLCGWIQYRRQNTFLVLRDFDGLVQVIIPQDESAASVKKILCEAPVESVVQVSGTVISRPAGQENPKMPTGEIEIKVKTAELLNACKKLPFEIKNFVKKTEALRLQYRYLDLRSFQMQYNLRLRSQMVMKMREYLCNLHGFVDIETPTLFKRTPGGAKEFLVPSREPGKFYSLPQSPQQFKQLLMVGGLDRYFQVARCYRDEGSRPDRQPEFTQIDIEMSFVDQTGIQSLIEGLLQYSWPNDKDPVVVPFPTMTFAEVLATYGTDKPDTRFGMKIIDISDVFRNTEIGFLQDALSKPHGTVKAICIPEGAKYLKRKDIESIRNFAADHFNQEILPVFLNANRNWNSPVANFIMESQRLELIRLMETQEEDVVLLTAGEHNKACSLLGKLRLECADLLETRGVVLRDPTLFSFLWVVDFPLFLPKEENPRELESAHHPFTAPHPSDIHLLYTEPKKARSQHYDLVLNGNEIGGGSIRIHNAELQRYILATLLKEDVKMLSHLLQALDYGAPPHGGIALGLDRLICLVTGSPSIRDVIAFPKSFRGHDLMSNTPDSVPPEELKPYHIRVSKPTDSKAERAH

FOXP4 (human) = biological target: T2, FOXP4 (human) (UniProt Q8IVH2)
T2 sequence: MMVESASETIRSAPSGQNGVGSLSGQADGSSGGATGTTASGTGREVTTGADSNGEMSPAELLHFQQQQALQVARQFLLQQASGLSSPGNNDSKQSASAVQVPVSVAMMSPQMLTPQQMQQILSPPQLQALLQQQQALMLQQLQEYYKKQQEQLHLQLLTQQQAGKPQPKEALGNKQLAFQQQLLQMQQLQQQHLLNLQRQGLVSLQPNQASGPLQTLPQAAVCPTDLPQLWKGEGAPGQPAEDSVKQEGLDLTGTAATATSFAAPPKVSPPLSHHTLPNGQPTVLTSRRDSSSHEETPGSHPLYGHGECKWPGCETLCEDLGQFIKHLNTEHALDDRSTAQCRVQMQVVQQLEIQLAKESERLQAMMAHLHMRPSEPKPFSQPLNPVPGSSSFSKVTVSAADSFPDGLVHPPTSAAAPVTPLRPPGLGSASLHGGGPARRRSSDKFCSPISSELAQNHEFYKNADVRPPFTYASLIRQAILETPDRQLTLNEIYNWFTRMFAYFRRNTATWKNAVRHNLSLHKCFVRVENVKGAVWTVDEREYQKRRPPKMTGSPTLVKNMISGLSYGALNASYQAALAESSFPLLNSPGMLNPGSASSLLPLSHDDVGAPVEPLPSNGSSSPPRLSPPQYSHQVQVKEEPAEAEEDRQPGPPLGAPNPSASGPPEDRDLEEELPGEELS

MAGEB1 (human) = biological target: T3, MAGEB1 (human) (UniProt P43366)
T3 sequence: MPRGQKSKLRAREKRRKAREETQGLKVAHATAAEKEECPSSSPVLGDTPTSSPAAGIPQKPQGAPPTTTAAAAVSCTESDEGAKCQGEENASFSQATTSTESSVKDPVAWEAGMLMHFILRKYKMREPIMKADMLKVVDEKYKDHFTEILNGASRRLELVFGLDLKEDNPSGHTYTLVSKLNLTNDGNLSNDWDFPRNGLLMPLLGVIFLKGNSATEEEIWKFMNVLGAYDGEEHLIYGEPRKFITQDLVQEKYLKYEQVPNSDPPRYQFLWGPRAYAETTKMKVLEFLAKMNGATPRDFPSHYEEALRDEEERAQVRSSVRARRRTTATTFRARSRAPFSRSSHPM

PABPC4 (human) = PABPC4 (human) (UniProt Q13310)
PSRC1 (human) = biological target: T4, PSRC1 (human) (UniProt Q6PGN9)
T4 sequence: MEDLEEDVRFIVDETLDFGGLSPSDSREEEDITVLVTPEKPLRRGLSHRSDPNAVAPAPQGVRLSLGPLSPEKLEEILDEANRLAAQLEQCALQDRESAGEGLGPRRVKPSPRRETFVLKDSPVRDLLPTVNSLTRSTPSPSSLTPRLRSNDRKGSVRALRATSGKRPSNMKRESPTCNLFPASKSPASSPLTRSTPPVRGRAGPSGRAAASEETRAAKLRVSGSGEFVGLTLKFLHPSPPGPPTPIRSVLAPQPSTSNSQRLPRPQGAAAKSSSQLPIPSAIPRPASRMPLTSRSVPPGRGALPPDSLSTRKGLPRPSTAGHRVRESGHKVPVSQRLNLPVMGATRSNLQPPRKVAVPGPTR

RAB5A (human) = RAB5A (human) (UniProt P20339)

Measured: binding

linear ubiquitin chain assembly complex (LUBAC), purified as HIS-tagged HOIP with the subunit HOIL-1, biotin-labelled (from UniProt Q96EP0 1-1072; Q9BYM8 1-510)
binds: all assays above
